# According to the supplement of paper PMC10037445:
# What follows is the remainder of the data, with few or none of the highest values.
# Legend:
# [1] = system: RAW-Dual; assay: IRF Lucia reporter activity, fold change vs agonist alone; higher = enhanced IRF activity; settings: library stock concentration (final ~1000-fold dilution): 10 mM, cytotoxicity flag (confluency mask): not cytotoxic
# In short: (§1)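 Reporter activity is given as fold change relative to agonist-alone wells. To measure it, 50 nL of library stock was pin-tooled onto RAW-Dual macrophages (50,000 cells/well, DMEM, 384-well plates), a PRR agonist followed 1 h later, and cells stayed at 37 °C, 5% CO2. Twenty hours on, supernatant was assayed for IRF (QuantiLuc luminescence) and NF-κB (QuantiBlue, 620 nm absorbance), and wells under 70% of agonist-control IncuCyte confluency in both mask sets were marked cytotoxic.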
# [2] = system: RAW-Dual; assay: NF-kB SEAP reporter activity, fold change vs agonist alone; higher = enhanced NF-kB activity; settings: library stock concentration (final ~1000-fold dilution): 10 mM, cytotoxicity flag (confluency mask): not cytotoxic
# In short: as §1
# [3] = agonist: 3'3'-cGAMP (STING) 10 ug/mL
# [4] = agonist: MPLA (TLR4) 0.25 ug/mL
# [5] = agonist: Imiquimod (TLR7) 2.5 ug/mL
# [6] = agonist: ODN 1826 (TLR9) 0.5 ug/mL
# [7] = agonist: Pam2CSK4 (TLR2/6) 0.1 ug/mL
# [8] = agonist: Pam3CSK4 (TLR2/1) 0.1 ug/mL
SMILES,"IRF Lucia reporter activity [1, 3]",IRF Lucia reporter activity ([1]; agonist: LPS (TLR4) 0.1 ug/mL),"IRF Lucia reporter activity [1, 4]","NF-kB SEAP reporter activity [2, 5]",NF-kB SEAP reporter activity ([2]; agonist: LPS (TLR4) 0.1 ug/mL),"NF-kB SEAP reporter activity [2, 4]","NF-kB SEAP reporter activity [2, 6]","NF-kB SEAP reporter activity [2, 7]","NF-kB SEAP reporter activity [2, 8]"
Cc1ccc(C(=O)NCCCCCC(=O)Nc2ccccc2N)cc1,0.12,0.197,0.25,1.28,3.44,1.7,1.92,0.778,1.06
Cc1nc2c(-c3cnc(N)nc3)nc(N3CCOCC3)nc2n1C(C)C,0.256,0.756,0.723,0.792,1.09,1.33,0.59,0.447,0.448
Br.CN1C2CCC1CC(OC(=O)C(O)c1ccccc1)C2 (stereo not given),1.12,0.938,1.09,0.922,1.29,1.01,0.933,1.09,1.12
COC(=O)C(CCCNC(=N)N)NS(=O)(=O)c1ccc(C)cc1 (stereo not given),1.04,1.04,0.97,0.964,0.99,0.988,1.02,0.996,0.977
Cc1ccccc1-n1c(Cn2nc(-c3cccc(O)c3)c3c(N)ncnc32)nc2cccc(C)c2c1=O,0.788,1.2,1.16,0.966,1.33,0.817,0.767,0.575,0.657
